Measured values taken from PubChem BioAssay AID2417 (National Center for Advancing Translational Sciences (NCATS), 2010).
The campaign covered roughly 140,000 compounds. About 4,300 (3.1%) were called active. The shares of active, inactive and inconclusive entries below differ from those in the screen.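 The calls were made as follows: active = readout at or below -70, meaning at least 70% loss of cells showing the perinucleolar compartment, a nuclear body marking cancer cells; inconclusive = readout between -30 and a set limit; inactive = the rest.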

assay: High Content Assay for Compounds that inhibit the Assembly of the Perinucleolar Compartment; conditions: PC3M PTB-GFP, PNC prevalence imaging, 16 h; at 10 µM; active compounds read low;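 also: plate controls were DMSO wells for no effect and camptothecin positive control wells for full effect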
In short: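 Read-out is percentage of cells bearing a perinucleolar compartment, from automated 20x imaging of fixed, Hoechst-stained PC3M PTB-GFP cells. Cells were seeded 4 h, then exposed 16 h to compound (23 nl of library stock) in duplicate plates.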

Compound	activity change (PNC), negative = inhibition
COC(=O)C1OC2(OC1C(=O)OC)c1ccccc1-c1ccccc12 (centres undefined)	inconclusive: -51.7%
CN(Cc1ccccc1)c1ncnc2ccc(Br)cc12	inactive: 40.3%
CCn1c(CSc2nc3ccccc3[nH]2)n[nH]c1=S	active: -122%
Cc1nn(Cc2ccc(F)cc2)c(C)c1NC(=O)c1noc2c1CCc1ccccc1-2	inactive: -5.67%
CC(CCc1ccccc1)NC(=O)C1CCN(c2nnc(-n3cccc3)s2)CC1 (centres undefined)	inconclusive: -43%
COc1ccccc1NC(=O)c1cc(Sc2nncn2C)nc2ccccc12	inconclusive: -35.9%
CC(C)COC(=O)N1CCCC1C(=O)Nc1nccs1 (centres undefined)	inconclusive: -31%
Cc1nc2nc(Cc3ccccc3)nn2c(C)c1Cl	inactive: 2.56%
Nc1ccc2nc(-c3ccc(N)c(Cl)c3)[nH]c2c1	inconclusive: -43.7%
CCOC(=O)N1CCN(Cc2nc3c(c(=O)n(C)c(=O)n3C)n2Cc2cc(C)ccc2C)CC1	inconclusive: -48.1%
CCc1nc2ccccc2n1CC(C)C(=O)O (centres undefined)	active: -100%
C#CCOCCOCCOCCNc1nc(N2CCOCC2)nc(N2CCN(C(=O)[C@H]([C@@H](C)O)n3cc(CCCCN)nn3)CC2)n1	inconclusive: -68.7%
CCCCC(NS(=O)(=O)c1ccc(OC)cc1)C(=O)O (centres undefined)	active: -100%
O=C(COc1cccc2ccccc12)NNC(=O)c1cccs1	inactive: 9.06%
COc1ccc(C(=O)NC2CCN(C(=S)Nc3cc(C)ccc3C)CC2)cc1	inconclusive: -58.1%
Cn1c(=O)c2c(nc(NCc3ccco3)n2CCc2ccccc2)n(C)c1=O	inactive: -4.98%
O=C(O)CSCc1c(F)cccc1Cl	inactive: -13.5%
CCOC(=O)CSC1=NC(=O)/C(=C/c2ccc(OC)cc2)S1	active: -91.4%
COc1cccc(C(=O)COc2ccc3c(C)c(Cc4ccccc4)c(=O)oc3c2)c1	inactive: -15.3%
CCOc1cc(N2CCOCC2)c(OCC)cc1NC(=O)COc1ncnc2ccccc12	inconclusive: -31.9%

Compound	activity change (PNC), negative = inhibition
CCC(Sc1nc(C)cc(C)n1)C(=O)Nc1ccc(Cl)cn1 (centres undefined)	inconclusive: -55.7%
Cc1ccc(C)c(S(=O)(=O)N/N=C/c2ccc(C(=O)O)cc2)c1	inconclusive: -38.4%
CCN(CC)C(=O)CSc1nc2c(sc(=S)n2Cc2ccco2)c(=O)n1-c1ccccc1	inactive: 18.4%
O=C(OCc1cc(=O)n2cc(Br)ccc2n1)C1COc2ccccc2O1 (centres undefined)	inconclusive: -65.4%
COc1cc(C2N(c3ccccn3)C(=O)C3CCCN32)cc(OC)c1OC (centres undefined)	inconclusive: -41.3%
Cc1cccc(OCCn2c(CCCO)nc3ccccc32)c1	inconclusive: -52.3%
O=C(CC1(O)C(=O)Nc2ccccc21)c1ccccc1O (centres undefined)	inconclusive: -43.3%
COc1ccc(C(=O)c2oc3ccc(Br)cc3c2NC(C)=O)cc1	inconclusive: -42.3%
N#CCSc1nc2c(c(C3CC=CCC3)c1C#N)CCC2 (centres undefined)	inconclusive: -33.6%
CSc1cnc2c(=O)n(C)c(=O)[nH]c2n1	inconclusive: -31.1%
COc1ccc(NC(=O)N2CCC(O)(c3cccnc3)CC2)c(OC)c1	active: -82.4%
Nc1ccc2c(c1)N1CCN=C1S2	inconclusive: -41.9%
COC(=O)c1ccccc1NC(=O)Cn1cnc2cc(C)c(C)cc21	inconclusive: -35.6%
COc1cc(C2Nc3cc(Cl)c(S(N)(=O)=O)cc3S(=O)(=O)N2)ccc1OCc1ccccc1 (centres undefined)	inconclusive: -61.8%
COc1ccc(NC(=O)Cc2cccs2)c(OC)c1	inconclusive: -47.7%
Cc1cccc2nc(CSc3nc4ccc([N+](=O)[O-])cc4[nH]3)c(Br)n12	inactive: -19.2%
O=C(c1n[nH]c2c1CCCC2)n1ccnc1	inconclusive: -54.5%
COc1ccccc1-c1nnc(NC(=O)c2cccc(N3C(=O)CCC3=O)c2)o1	inactive: -7.63%
CC(C)CCNC(=O)C(c1ccco1)N(Cc1ccccc1)C(=O)c1snc(C(N)=O)c1N (centres undefined)	active: -123%
CCN1CCN(C(c2cccs2)C(C)NS(=O)(=O)c2ccc(F)cc2)CC1 (centres undefined)	inconclusive: -58.8%

Compound	activity change (PNC), negative = inhibition
COc1ccc(CNC(=O)C(c2ccncc2)N(C(=O)Cc2cccs2)c2ccccc2C)cc1 (centres undefined)	inconclusive: -65.3%
CC(C)C1=C2CCCCC2NC(=O)N1 (centres undefined)	inconclusive: -48.8%
CCc1oc2c(C)c(O)ccc2c(=O)c1-c1ccc2ccccc2n1	inconclusive: -34.9%
Cc1ccc(S(=O)(=O)N2CCCC(C(=O)N(Cc3cccs3)C3CC3)C2)cc1 (centres undefined)	inconclusive: -64.5%
O=C(CSc1nc2ccccc2c(=O)n1-c1ccccc1)NCc1ccco1	inactive: -0.832%
CCOc1cc(C)c(Cl)cc1S(=O)(=O)N1CCCC1	inactive: -17.5%
O=C(c1ccco1)N1CCN(Cc2nc3ccccc3c(=O)n2-c2ccc(F)cc2)CC1	inconclusive: -53.9%
O=C(CSCc1ccc(Cl)cc1)c1ccco1	inactive: 2.72%
CCNC(=S)NNC(=O)c1ccccc1Cl	active: -80.5%
CCC(Oc1ccccc1)C(=O)N1CCC(C(N)=O)CC1 (centres undefined)	inconclusive: -51.3%
CC(C)(C)NC(=O)/C=N/O	inconclusive: -52.3%
Cn1c(=O)c2c(ncn2CC(=O)N/N=C/c2ccco2)n(C)c1=O	inconclusive: -50.2%
COc1ccc(-c2cc(C(=O)NN)n(-c3ccccc3)n2)cc1	inactive: 14.4%
COC(=O)c1ccc(CS(=O)(=O)c2ccccc2C)o1	inactive: 9.63%
NC(=O)c1ccsc1NC(=O)c1nc(-c2ccccc2)n(-c2ccccc2)n1	inconclusive: -46.5%
COc1ccc(NC(=O)c2nc3nccc(C)n3n2)cn1	inconclusive: -35.8%
O=C(O/N=C\c1ccc(N2CCCCC2)c([N+](=O)[O-])c1)c1ccc(Cl)cc1Cl	inactive: 52.3%
CCOP(=O)(c1c(F)c(F)c(F)c(F)c1F)C1(O)CCCCC1 (centres undefined)	inconclusive: -48.1%
CC1(C)CC(c2nc(-c3ccc(Cl)cc3)cs2)CCS1 (centres undefined)	inactive: -5.47%

Four of the compounds above, bar-delimited.
Compound | activity change (PNC), negative = inhibition
COc1ccc(-c2cc(C(=O)NN)n(-c3ccccc3)n2)cc1 | inactive: 14.4%
COC(=O)c1ccc(CS(=O)(=O)c2ccccc2C)o1 | inactive: 9.63%
NC(=O)c1ccsc1NC(=O)c1nc(-c2ccccc2)n(-c2ccccc2)n1 | inconclusive: -46.5%
COc1ccc(NC(=O)c2nc3nccc(C)n3n2)cn1 | inconclusive: -35.8%
